SMILES strings stand for the structures.

Experimental findings from US4612311A, “1,2,4-benzothiadiazine oxide derivatives” (Warner-Lambert Company, priority 1984, dated 1986) are described below.

A short description of data set [1]: LD50. Details: species or system male mice (NMRI). The settings on record: mouse, in vivo; oral; ">": no effect up to this highest examined dosage. The protocol: Experimental animals used were male mice (NMRI, origin: Ivanovas, Kissleg) of weight 18 to 25 g. The animals were allowed food and water ad lib.. but, according to the test, they were fasted for two to 16 hours before the beginning of the test with water allowed ad lib.
The substances under test were applied orally by means of a stomach tube in a 0.8% methocel suspension 30 minutes before the start of the test.

Data set [2] concerns benzodiazepine rec. In words: GABA-Ratio, benzodiazepine receptor binding. Conditions: in words.

With `CN1C(=O)CN=C(c2ccccc2)c2cc(Cl)ccc21` [Diazepam, reference compound], in data set [1], the median lethal dose (LD50) is 700 mg/kg. For the same molecule, the “GABA-Ratio, agonist character” value in data set [2] was “agonist”.
